Results: PubChem BioAssay AID504467 (National Center for Advancing Translational Sciences (NCATS), 2011)
Out of some 330,000 compounds screened, about 7,700 (2.3%) were called active. The shares of active, inactive and inconclusive entries below differ from those in the screen. Calls follow the shape of the dose curve; as a rule, active = well fitted inhibition curve with a large enough effect; inconclusive = small, poorly fitted or top-dose-only effect, or effect the other way; inactive = flat fitted curve, though single readings scatter. Potencies of inconclusive entries are doubtful fits and often do not repeat.
% is scaled to controls: 0 for no effect and ±100 for the full control effect; potency is read from the fitted curve at half-maximal effect.

Assay: qHTS screen for small molecules that inhibit ELG1-dependent DNA repair in human embryonic kidney (HEK293T) cells expressing luciferase-tagged ELG1; also: nearly all actives have a fitted effect of over 55% in size
Details: HEK293T ELG1-luciferase reporter, luminescence, 16 h, DNA damage induced by 5-fluorouridine; activity change, negative = inhibition: at 46.1 µM (top of the series)
Summary of the method: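 DMSO vehicle served as the neutral condition. Each well held 2,000 cells given 5-fluorouridine plus compound; after 16 hr at 37 °C/5% CO2, ONE-Glo was added and luciferase measured 30 min later.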
With `COc1ccc(S(=O)(=O)N(CC(=O)N/N=C/c2cccs2)c2ccc(C)cc2)cc1OC` the Potency was inconclusive: 14.6 µM [inhibitor, single point].
With `O=C(C/C=N/OCc1c(Cl)cccc1Cl)c1cnc(-c2ccccc2)s1` the Potency was inconclusive: 29.1 µM [activator, partial curve, poor fit].
In the case of `COc1cccc(NC(=S)Nc2ccc(O)cc2)c1`, the Potency is reported as inconclusive: 29.1 µM [activator, single point].
With `[O-]/C(=C(\C(=S)Nc1ccc(Cl)cc1)[n+]1ccccc1)c1ccc(OC(F)F)cc1` the Potency was inconclusive: 23.1 µM [inhibitor, single point].
For `CC(=O)c1cccc(OCc2cc(C(=O)N3C[C@H]4CC[C@H]3C4)no2)c1`, the Potency was inconclusive: 20.6 µM [activator, partial curve].
In the case of `O=C(NCCCN1CCCC1=O)c1cc(-c2ccc(F)cc2)nc2ccccc12`, the Potency is reported as active: 18.3 µM.
In the case of `Cc1ccc([C@H]2C(C(=O)O)=CC[C@@H](c3ccc(Cl)c(Cl)c3)N2S(=O)(=O)c2ccc(C)cc2)cc1`, the “activity change, negative = inhibition” value is reported as inactive: -7.03%.
In the case of `COC(=O)c1ccccc1C(=O)N1CCCC(CNC(=O)c2ccc(F)cc2)C1` (stereo unspecified), the Potency is reported as inconclusive: 25.9 µM [activator, partial curve].
With `Cc1ccc2nc(C(=O)N3CCCC(Nc4ccc(F)cc4)C3)cn2c1` (stereo unspecified) the Potency was inconclusive: 20.6 µM [activator, partial curve].
For `C=CCNC(=S)NNc1nc2sc3c(c2c(=O)[nH]1)CC(C)(C)OC3`, the “activity change, negative = inhibition” value was inactive: -3.48%.
In the case of `COCCn1nnnc1SCC(=O)c1ccccc1`, the Potency is reported as inconclusive: 16.4 µM [activator, partial curve, poor fit].
In the case of `Cc1cc(/C=C2\SC(=Nc3ccc(F)cc3)NC2=O)c(C)n1-c1ccc(S(N)(=O)=O)cc1`, the Potency is reported as inconclusive: 5.17 µM [inhibitor, partial curve, poor fit].
In the case of `CCOc1ccc(C(=O)NC(=S)NC2CCCC2)cc1[N+](=O)[O-]`, the “activity change, negative = inhibition” value is reported as inactive: -27.5%.
For `CN(C)C1=NC[C@H](Cc2ccccc2)N1CC1CCCC1`, the “activity change, negative = inhibition” value was inactive: -2.87%.
With `CC(=O)c1ccc(-c2ccc(C(=O)Nc3nc(-c4ccccn4)cs3)o2)cc1` the Potency was active: 18.3 µM.
For `CCOC(=O)[C@H]1[C@H]2COc3ccc(Cl)cc3[C@@H]2N2C(=O)CN(Cc3ccc(Cl)cc3)C(=O)[C@@]12C`, the Potency was inconclusive: 32.6 µM [inhibitor, single point].
In the case of `Cc1[nH]c2ccc(-c3n[nH]c(=S)n3Cc3ccccc3)cc2c1C`, the “activity change, negative = inhibition” value is reported as inactive: 15%.
With `Cc1cc(C)n(-c2nnc(C)c(=O)[nH]2)n1` the “activity change, negative = inhibition” value was inactive: -2.23%.
In the case of `O=C(NC1CCCCC1)C1CCN(S(=O)(=O)c2cccc3nonc23)CC1`, the “activity change, negative = inhibition” value is reported as inactive: 0.809%.
With `CC1CCC(NC(=O)COC(=O)CCC(=O)c2ccc(Cl)s2)CC1` (stereo unspecified) the “activity change, negative = inhibition” value was inactive: 0.0892%.
For `Cc1cc2sc(NC(=O)c3ccco3)nc2cc1Cl`, the Potency was inconclusive: 0.58 µM [activator, full curve].
For `Cn1c(=O)c2c(nc(N3CCN(c4ccc([N+](=O)[O-])cc4)CC3)n2C)n(C)c1=O`, the Potency was inconclusive: 16.4 µM [inhibitor, single point].
With `Cn1cccc1-c1cc(C(=O)N/N=C/c2ccc(F)cc2)[nH]n1` the “activity change, negative = inhibition” value was inactive: 0.197%.
With `CCn1nc(C)c(CNC(=O)c2cc(COc3cncc(Cl)c3)on2)c1C` the Potency was inconclusive: 13 µM [inhibitor, partial curve].
With `Cc1cc(C)n(-c2nnc3c4ccccc4n(C)c3n2)n1` the Potency was inconclusive: 4.61 µM [activator, partial curve].
For `CC(C)OCCCNC(=O)c1cccc(NC(=O)c2ccccc2)c1`, the Potency was inconclusive: 16.4 µM [inhibitor, single point].
For `COc1cc2cc(CCCO)oc(=O)c2cc1OC`, the Potency was inconclusive: 29.1 µM [activator, single point].
For `CN(C(=O)CSc1nnc(-c2cccs2)n1N)c1ccccc1`, the “activity change, negative = inhibition” value was inactive: 0%.
With `COc1ccc(CCNC(=O)/C(C#N)=C/c2cccc(OCc3ccccc3)c2)cc1OC` the Potency was inconclusive: 32.6 µM [inhibitor, single point].
With `Cc1ccc(-c2cc(C(=O)N3CCN(C(=O)c4ccco4)CC3)[nH]n2)c(C)c1` the “activity change, negative = inhibition” value was inactive: 10%.
With `Cc1ccccc1C(=O)N1CCN(c2ccc(NC(=S)NC(=O)c3cccs3)cc2)CC1` the Potency was active: 20.6 µM.
With `CC(C)(C)c1cc(CCC(=O)NNC(=O)c2ccco2)cc(C(C)(C)C)c1O` the “activity change, negative = inhibition” value was inactive: 2.31%.
With `O=S(=O)(c1ccccc1)N1CCN(Cc2ccc(Cl)cc2)CC1` the Potency was inconclusive: 0.82 µM [inhibitor, full curve, poor fit].
With `O=c1oc2ccccc2cc1-c1nc(-c2ccccc2)no1` the Potency was inconclusive: 4.11 µM [activator, partial curve].
In the case of `CCN1C(=O)[C@@H]2[C@@H](c3ccc(-c4ccc(C(C)=O)cc4)c(OC)c3)N3CCCC[C@@]3(C(=O)OC)[C@@H]2C1=O`, the Potency is reported as inconclusive: 14.1 µM [inhibitor, single point].
In the case of `N#CC(c1ccccc1)c1ccc(C(=O)c2ccc(F)cc2)cc1` (stereo unspecified), the Potency is reported as inconclusive: 23.1 µM [inhibitor, partial curve, poor fit].
With `Cc1onc(-c2ccccc2)c1-c1ccnn1S(=O)(=O)c1ccc(Cl)cc1` the Potency was inconclusive: 6.51 µM [inhibitor, partial curve].
In the case of `COc1ccc(CN(CCN(C)C)c2ccccn2)cc1`, the Potency is reported as “inactive”.
With `CCCCN(CCCC)C1=Nc2ccccc2N/C1=C(/C#N)C(=O)OCC` the Potency was inconclusive: 25.9 µM [inhibitor, single point].
With `CC[n+]1c(/C=C2\Sc3ccccc3N2C)ccc2cccc(C)c21` the Potency was inconclusive: 10.3 µM [inhibitor, partial curve, poor fit].
In the case of `COc1cccc(NC(=O)c2cc(S(=O)(=O)N3CCc4ccccc43)cn2C)c1`, the “activity change, negative = inhibition” value is reported as inactive: 13.6%.
For `Cc1nnc(NC(=O)c2ccc3nccnc3c2)s1`, the Potency was inconclusive: 20.6 µM [activator, partial curve].
For `CN(Cc1nccn1C)C(=O)c1cc(COc2ccc3ncccc3c2)on1`, the Potency was inconclusive: 23.1 µM [inhibitor, partial curve].
In the case of `Cc1cccc(C)c1NC(=O)CSc1nnc(-c2cnccn2)n1C`, the Potency is reported as inconclusive: 16.4 µM [activator, partial curve, poor fit].
For `Cc1ccc(N2CCN(Cc3ccccc3)CC2=O)c(C)c1`, the “activity change, negative = inhibition” value was inactive: 7.58%.
In the case of `Cc1nc(N)sc1-c1csc(NCc2ccccc2)n1`, the “activity change, negative = inhibition” value is reported as inactive: -17.5%.
For `O=C(CCc1ccccc1)Nc1ccccc1`, the “activity change, negative = inhibition” value was inactive: 18.1%.
In the case of `C=CCN(CC=C)C(=O)c1cccc(OC2CCN(S(=O)(=O)N(C)C)CC2)c1`, the Potency is reported as inconclusive: 25.9 µM [inhibitor, single point].
In the case of `CCOc1ccc(CC(=NCCc2ccccc2)C2=C(O)CC(C)(C)CC2=O)cc1OCC`, the Potency is reported as inconclusive: 23.1 µM [inhibitor, single point].
In the case of `Nc1ccc(N2CCN(C(=O)c3cccs3)CC2)cc1`, the Potency is reported as inconclusive: 8.2 µM [inhibitor, partial curve, poor fit].
With `Clc1ccccc1CSc1nnc(-c2ccccn2)n1Cc1ccco1` the Potency was inconclusive: 18.4 µM [inhibitor, partial curve, poor fit].
With `O=C(NCCc1ccc(Cl)cc1)C1CCCN(c2ncnc3c2nc2n3CCCCC2)C1` (stereo unspecified) the Potency was inconclusive: 20.6 µM [inhibitor, single point].
In the case of `COc1ccc(NC(=O)c2sc3nc(C)nc(N4CCN(c5ccccn5)CC4)c3c2C)cc1Cl`, the Potency is reported as active: 3.26 µM.
With `Cc1ccc(C(=O)NCCc2nnc(SCC(=O)Nc3cccc(C(=O)O)c3)n2C)cc1` the Potency was inconclusive: 23.1 µM [activator, partial curve, poor fit].
For `C#Cc1ccc(CN2CCN(CCCc3ccccc3)C(CCO)C2)cc1` (stereo unspecified), the Potency was inconclusive: 22.4 µM [inhibitor, partial curve, poor fit].
For `Cc1cc2ncn(C(=O)N3CCC(C)CC3)c2cc1C`, the Potency was inconclusive: 11.6 µM [activator, partial curve].
With `Cc1ccc(S(=O)(=O)Nc2ccc3c(c2)OCCO3)c(C)c1NS(C)(=O)=O` the “activity change, negative = inhibition” value was inactive: -3.66%.
With `COc1ccc(Cc2nnc(N)s2)cc1` the Potency was inconclusive: 29.1 µM [activator, single point].
For `O=C(NNC(=S)NC(=O)c1ccccc1)c1ccc([N+](=O)[O-])cc1`, the “activity change, negative = inhibition” value was inactive: 43.1%.
For `Cn1c(=O)oc2cc(S(=O)(=O)N3CCC(C(=O)NCCc4ccccc4)CC3)ccc21`, the “activity change, negative = inhibition” value was inactive: -0.113%.
For `COc1cccc(CNS(=O)(=O)c2cc3c4c(c2)CCN4C(=O)CC3)c1`, the “activity change, negative = inhibition” value was inactive: 12.6%.
With `Cc1ccc(C)c(CSC2=NCCN2S(=O)(=O)c2ccccc2)c1` the “activity change, negative = inhibition” value was inactive: -8.25%.
In the case of `Cc1ccc(Cn2nc(C)c(NC(=O)c3noc4c3CCCCC4)c2C)cc1`, the Potency is reported as inconclusive: 18.4 µM [inhibitor, single point].
For `O=C(CSCc1c(F)cccc1Cl)NNC(=S)NC1CCCCC1`, the Potency was inconclusive: 1.3 µM [inhibitor, partial curve, poor fit].
For `Cc1cc(NS(=O)(=O)c2ccc(Nc3nc(-c4ccc(C)c(C)c4)cs3)cc2)no1`, the Potency was inconclusive: 16.4 µM [inhibitor, single point].
With `Cc1ccc(SCC(=O)NN2C(=O)c3ccccc3C2=O)cc1` the “activity change, negative = inhibition” value was inactive: 10.8%.
For `CC(C)(C)N(Cc1ccccc1)C(=O)c1ccc(Br)o1`, the Potency was inconclusive: 3.26 µM [inhibitor, full curve].
With `Cc1cc(NC(=O)c2cc(-c3ccc(C)s3)nc3ccccc23)no1` the “activity change, negative = inhibition” value was inactive: -3.94%.
For `Cc1ccccc1CNC(=O)C(=O)NCC1CCCN1S(=O)(=O)c1cccs1` (stereo unspecified), the “activity change, negative = inhibition” value was inactive: -40.1%.
With `Cc1c(C(=O)NCC2COc3ccccc3O2)oc2ccc(S(=O)(=O)N3CCOCC3)cc12` (stereo unspecified) the Potency was inconclusive: 7.31 µM [inhibitor, partial curve].
With `COc1ccc(CCC(=O)OCC(=O)NCc2ccc(OC)c(OC)c2)cc1OC` the Potency was inconclusive: 1.83 µM [activator, partial curve].
